Here are results for nine molecules from patent publication US20260258137A1.

Positions count from the first letter of the chain named. No constants are given. Whether binding was seen depends on the method and setting. Some results given as binding are weak or reduced against the parent protein; the word gives no strength.

To fix the notation:
B1: PR000267 (antibody, human IgG1, kappa, N297A, V domains shown)
VH: EVQLVESGGGLVQPGGSLRLSCAASGFTFSSYWMSWVRQAPGKGLEWVANIKQEGSEKYYGDSVKGRFTISRDNAKNSLYLQMNSLRAEETAVYYCARDRAVAGASDIWGQGTMVTVSS
VL: DIQMTQSPSTLSASVGDRVTITCRASQSISSWLAWYQQKPGKAPNLLIYKASSLETGVPSRFSGSGSGTEFTLTISSLQPDDFATYYCQQYYGYSRTFGQGTKVEIKR
B2: PR000268 (antibody, human IgG1, kappa, N297A, V domains shown)
VH: B1 VH with E54D, G55A
VL: B1 VL
B3: PR000266 (antibody, human IgG1, kappa, N297A, V domains shown)
VH: B1 VH with E54D, G55A, G61V, E90D, S106F
VL: B1 VL with I21V, S30Y, S31I, Y94S
B4: PR000064 (antibody, human IgG1, kappa, N297A, V domains shown)
VH: B1 VH with E54D, G61V, E90D, S106F
VL: B1 VL with A13T, S31I, N45K, T56S
B5: PR000070 (antibody, human IgG1, kappa, N297A, V domains shown)
VH: B1 VH with E54D, G61V, E90D, S106F
VL: B1 VL with I21V, S30Y, S31I, Y94S
B6: PR000066 (antibody, human IgG1, kappa, N297A, V domains shown)
VH: B1 VH with E54D, G61V, E90D, D107A, I108F
VL: B1 VL with D17H, S31I, N45D, S65N, Y94S
B7: PR000069 (antibody, human IgG1, kappa, N297A, V domains shown)
VH: B1 VH with E54D, G61V, E90D, Y94F, S106F, D107A
VL: B1 VL with S30Y, S31I, K39H, N45K, T56S, Y87F, K107R
B8: PR000065 (antibody, human IgG1, kappa, N297A, V domains shown)
VH: B1 VH with E54D, G61V, E90D, S106F
VL: B1 VL with S30F, S31I, Y94S
B9: PR000072 (antibody, human IgG1, kappa, N297A, V domains shown)
VH: B1 VH with E54D
VL: B1 VL

One assay has as its target cynomolgus PD-L1 on CHO-K1 cells (CHO-K1/cynoPD-L1, Nanjing Genscript, M00573) (cynomolgus) (UniProt G7PSE7). Description: flow cytometry on CHO-K1/cynoPD-L1 cells.
Consider B1, for which the binding result was “binds”.
On to B2, for which the binding result is “binds”.
Same read-out and setting: for B3 the value was “binds”.

The target is the same in another assay. Description: flow cytometry on CHO-K1/cynoPD-L1 cells (legend of FIG. 2). In general terms: Flow cytometry measures light scatter and fluorescence of single cells or particles in a stream.
Consider B1, for which the binding entry was “binds”.
B2: the binding result is listed as “binds”.
Still for that read-out and setting: the entry for B3 is “binds”.

The next assay has as its target Cynomolgus PD-L1 (Acrobiosystems, PD1-C52H4) (cynomolgus) (UniProt G7PSE7). Description: ELISA, plate coated with cynomolgus PD-L1 protein, antibody at one concentration, goat anti-human HRP secondary antibody, OD450. In general terms: ELISA stands for enzyme-linked immunosorbent assay.
As for B4, the binding entry was “binds”.
As for B5, the binding result is “binds”.
For B6, the binding entry is “binds”.
Still for that read-out and setting: the entry for B7 is “binds”; for B8 it is “binds”; for B9 it is “binds”.
